No constants are given. Whether binding was seen depends on the method and setting. Binding seen in cells or lysates may run through a third protein. A result given as binding can be weak or reduced; the word gives no strength. Tags and fused reporters may be left off the sequences shown.
Target: 3×HA-tagged ORFV ORF047 (pcDNA-3.1–3×HA-ORF047) (Orf virus (strain ORFV/QH01/2010))
Test: co-IP; HEK293T co-transfected with 3×HA-ORF047 and a 3×Flag-tagged host protein; NP-40 lysis buffer, antibody-coated magnetic beads, 4 °C; blots with anti-HA and anti-Flag (methods and legend: anti-FLAG beads; results: HA mAb coated beads)

Question: MEAALLVEKNLNQALLDLHGLASARGDPHICDFLENHFLDEEV (peptide, UniProt P18686 1-43) [3×Flag-tagged sheep ferritin light chain (pcDNA-3.1–3×Flag-FLC)] was tested. Which binding did it give?
Answer: binds
